According to PubChem BioAssay AID652054 (National Center for Advancing Translational Sciences (NCATS), 2013):
About 9,100 (2.5%) of roughly 360,000 compounds were called active. This list was built around the results that the source calls inconclusive (neither active nor inactive); the mix of calls is not that of the screen. Rule as the data show it: active = max response below about -50%; inconclusive = no clear call, values can overlap the other calls; inactive = above that.

By UniProt entry, the sequences of proteins in these tests, tags left out.
UniProt P35462, whole entry, looked up: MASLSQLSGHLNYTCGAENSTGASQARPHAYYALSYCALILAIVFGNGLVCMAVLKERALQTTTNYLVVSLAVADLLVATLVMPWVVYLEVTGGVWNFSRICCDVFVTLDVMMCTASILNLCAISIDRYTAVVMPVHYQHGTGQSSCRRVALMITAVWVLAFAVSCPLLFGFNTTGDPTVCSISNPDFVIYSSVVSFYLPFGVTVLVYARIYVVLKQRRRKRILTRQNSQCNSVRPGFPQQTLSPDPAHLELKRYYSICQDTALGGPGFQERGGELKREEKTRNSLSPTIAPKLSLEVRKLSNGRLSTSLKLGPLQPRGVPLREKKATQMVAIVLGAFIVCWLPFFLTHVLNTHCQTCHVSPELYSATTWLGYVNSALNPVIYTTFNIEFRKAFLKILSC

Biological target: D(3) dopamine receptor (Homo sapiens) (UniProt P35462)
Assay: qHTS of D3 Dopamine Receptor Antagonist: qHTS
Settings: D3R cells, DiscoveRx beta-arrestin luminescence, antagonist mode; stronger effect = lower value
In short: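 Cells expressing the human receptor were seeded at 1500 cells/well, incubated overnight at 37 degrees C in 5% CO2, then exposed to library compounds with dopamine controls for 90 minutes at 37 degrees C before luminescent detection.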
% is scaled to controls: 0 for no effect and ±100 for the full control effect.

| SMILES | max response, negative = inhibition |
| --- | --- |
| O=C(NCC(c1ccco1)N1CCc2ccccc2C1)c1ccc(Cl)c([N+](=O)[O-])c1 (stereo not drawn) | inconclusive: -47.3% |
| Cc1[nH]n2c(=O)cc(-c3ccc([N+](=O)[O-])cc3)nc2c1-c1ccccc1 | active: -80.8% |
| Cc1ccccc1-c1nc(CN2CCC(C(=O)NCc3cccs3)CC2)c(C)o1 | inconclusive: -31.7% |
| CC1CCN(CCCNC(=O)c2ccc3c(=O)n(CCc4ccccc4)c(=O)[nH]c3c2)CC1 | inactive: -28% |
| CN(CC(=O)N1CCN(Cc2ccccc2)CC1)S(=O)(=O)c1ccc(F)cc1 | active: -58.5% |
| CCCCN(CC)CCNC(=O)C1c2cc(OC)c(OC)cc2C(=O)N2CCc3ccccc3C12 (stereo not drawn) | active: -76.3% |
| Cc1cc(C)c2c3c(sc2n1)C(c1cccc(F)c1)C(C#N)=C(N)O3 (stereo not drawn) | inconclusive: -45.7% |
| Cc1ccc(S(=O)(=O)N2c3ccccc3OCC2c2ccccc2)cc1 (stereo not drawn) | inactive: 13.6% |
| Cc1cc2nc(C3CCCCC3)c(Cc3ccccc3)n2c(C)c1Br | inactive: -21.2% |
| CCN(CC)C(=O)[C@H]1C[C@H](CC(=O)NCC23CC4CC(CC(C4)C2)C3)C(=O)N2CCc3c([nH]c4ccc(Cl)cc34)[C@]12C | inactive: 0% |
| COc1ccc(CCN(C)C(=O)CNC(=O)c2ccccc2F)cc1OC | inconclusive: -48.2% |
| CCCCCOC(=O)c1[nH]c2c(c1C)C(=O)CC(c1ccco1)C2 (stereo not drawn) | inconclusive: -37.4% |
| Cn1c(=O)n(CC(=O)NC2CCCCC2)c(=O)c2ccccc21 | active: -58.5% |
| C/C(=N\Nc1nnc(C)c(=O)[nH]1)C(=O)O | active: -51.8% |
| COc1ccc(C(C)(NC(C)=O)c2nc(-c3ccccc3OC)cs2)cc1 (stereo not drawn) | active: -88.4% |
| O=C(COC(=O)c1cccs1)Nc1ccccc1 | inconclusive: -33.2% |
| CN(CCCOc1ccccc1Br)Cc1ccccc1 | active: -98.1% |
| COc1ccc(CNc2nc3ccccc3n2CCN2CCCCC2)c(OC)c1 | inconclusive: -39.9% |
| COc1cc(/C=C2\SC(=S)N(C(C(=O)O)c3ccccc3)C2=O)ccc1O (stereo not drawn) | inconclusive: -44% |
| COc1ccc(C)cc1NC(=O)NC(C)c1ccncc1 (stereo not drawn) | inactive: 12.2% |
| O=C1CCCN1c1cc(Cl)cc(Cl)c1 | active: -54.9% |
| CCCCCCCCN1C(=O)[C@H](CC(=O)NCc2ccc(OC)c(OC)c2)C[C@@]2(C(=O)OCC)CCCC=C12 | inactive: -15.4% |

| SMILES | max response, negative = inhibition |
| --- | --- |
| O=S(=O)(O)c1cccc2c(N=Nc3ccc(O)c4ncccc34)cccc12 | inconclusive: -42.6% |
| c1ccc(CN2CCC3(CC2)Nc2ccccc2S3)cc1 | inconclusive: -36.3% |
| O=C(COC(=O)C1(c2ccccc2F)CCCC1)NC1CCS(=O)(=O)C1 (stereo not drawn) | active: -61.8% |
| COc1cc2c(=O)n(CCCN3CCOCC3)c(=S)[nH]c2c(OC)c1OC | active: -83.5% |
| COC(=O)C1=C(C)N=c2s/c(=C/c3ccoc3)c(=O)n2C1c1ccccc1 (stereo not drawn) | inconclusive: -30.9% |
| Cc1c(NC(=O)Cn2[nH]c(=O)c3ccccc3c2=O)c(=O)n(-c2ccccc2)n1C | active: -52.1% |
| Oc1ccc(Br)cc1CN1CCCCCCC1 | inconclusive: -41.2% |
| O=C(NCc1cc(Cl)cc(Cl)c1)c1csc(COCCO)n1 | inconclusive: -43.9% |
| CCn1c2ccccc2c2cc(NC(=O)CNCC3CCCO3)ccc21 (stereo not drawn) | inactive: -11.7% |
| O=C(O)c1cccc(Nc2cc(Cl)c3nonc3c2[N+](=O)[O-])c1 | inconclusive: -45.4% |
| COc1ccc(CCNC(=O)CSC2=NS(=O)(=O)c3cc(F)ccc3N2)cc1OC | inconclusive: -47% |
| c1ccc2cc(CCO[C@H]3CCCCO3)ncc2c1 | inconclusive: -38.7% |
| Cc1ccc(-c2cnc(NC(=O)CCC(=O)N(C)Cc3ccccc3)n2C)cc1 | inconclusive: -33.5% |
| CCCCNC(=O)c1ccc2nc(CC)c(N(C)Cc3cccs3)n2c1 | inconclusive: -38.6% |
| N=c1cc(C2(O)CCCCC2)n2c(nc3ccccc32)s1 | inactive: 18.3% |
| COc1ccccc1CNc1nc2ccccc2n1CCN1CCCCC1 | inconclusive: -32.3% |
| CCOC(=O)C(=CNc1ccc2c(c1)nnn2-c1ccc(Cl)cc1)C(=O)OCC | inactive: 123% |
| COc1ccc(N2CCn3c2nc2c3c(=O)n(CCCc3ccccc3)c(=O)n2C)c(OC)c1 | inactive: 29.5% |
| COc1ccc(NC(=O)C2(C)Cc3c(-c4ccc5c(c4)OCO5)ccnc3O2)cn1 (stereo not drawn) | active: -53.3% |
| Cc1cccc(C(=O)Nc2cc(OCc3cccc(F)c3)c(Cl)cc2Cl)c1 | inconclusive: -37.7% |
| C=CCSc1nc(Oc2ccccc2)c2sccc2n1 | inconclusive: -33.8% |
| COc1ccc(CCNC(=O)CN2CCC(n3nnc4cc(F)ccc43)CC2)cc1OC | inconclusive: -45.4% |

A draw from above in order of molar mass, largest number first:

| SMILES | max response, negative = inhibition |
| --- | --- |
| COc1ccc(N2CCn3c2nc2c3c(=O)n(CCCc3ccccc3)c(=O)n2C)c(OC)c1 | inactive: 29.5% |
| Cc1cccc(C(=O)Nc2cc(OCc3cccc(F)c3)c(Cl)cc2Cl)c1 | inconclusive: -37.7% |
| COC(=O)C1=C(C)N=c2s/c(=C/c3ccoc3)c(=O)n2C1c1ccccc1 (stereo not drawn) | inconclusive: -30.9% |

Further compounds:

| SMILES | max response, negative = inhibition |
| --- | --- |
| O=C(CCNS(=O)(=O)c1cccc2nsnc12)N1CC(=O)N(CCc2ccccc2)C(=O)C1 | inconclusive: -36.4% |
| CC(=O)Nc1ccc(S(=O)(=O)NCc2cn3c(C)csc3n2)cc1 | active: -68.9% |
| Cc1cc2c(cc(C(=O)OCC(=O)NCc3cccs3)n2C(C)C)o1 | inactive: -17.1% |
| CC(C)c1ccc(OCC(O)CN2CCN(c3ccccn3)CC2)cc1 (stereo not drawn) | inactive: -29.5% |
| C#CCOCCOCCOCCNc1nc(N2CCN(C(=O)[C@H]([C@@H](C)CC)n3cc([C@@H](N)CC(C)C)nn3)CC2)nc(N2CCN(C(=O)[C@H](Cc3ccc(O)cc3)n3cc([C@@H](N)C(C)CC)nn3)CC2)n1 (stereo partly drawn) | active: -50% |
| C#CCN1C(=O)C(O)(CC(=O)c2ccc(OC)c(OC)c2)c2ccccc21 (stereo not drawn) | inactive: 6.3% |
| NC(=O)C1CCN(C2CC(=O)N(c3ccc(F)c(Cl)c3)C2=O)CC1 (stereo not drawn) | inconclusive: -33.1% |
| CC1CCC(C(C)C)C(OC(=O)Cn2c(-c3ccc(Cl)cc3)[n+](C)c3ccccc32)C1 (stereo not drawn) | inconclusive: -43.4% |
| Cn1c(/C(C#N)=C/C2CC=CCC2)nc2ccccc21 (stereo not drawn) | inconclusive: -35.9% |
| CCN1CCN(CC2COc3ccccc3O2)CC1 (stereo not drawn) | inconclusive: -38% |
| CCOc1ccc(/C=N/Nc2ccccn2)cc1OC | inconclusive: -48% |
| N#Cc1cc2c(nc1SCC(=O)O)CCCCC2 | inactive: -11.4% |
| Cc1ccc(CNc2ccc(O)cc2)cc1 | active: -53.5% |
| CC(=O)Nc1ccc(OCc2cn(CC(=O)c3ccc(O)cc3)nn2)cc1 | active: -114% |
| CCCC(C(=O)NC1CCCC1)N(C(=O)c1snc(C(N)=O)c1N)c1ccc(OCC)cc1 (stereo not drawn) | inconclusive: -42.5% |
| CCOc1ccc(Oc2ccccc2NC(=O)CN2C(=O)NC3(CCCC3)C2=O)cc1 | inactive: 5.45% |
| COC(=O)CCCn1cc(CN2CC(N3CCN(Cc4cccc(C)c4)CC3)CS2(=O)=O)nn1 (stereo not drawn) | inconclusive: -32.7% |
| O=C(Nc1ccc(CN2CCCCC2)cc1)Nc1ccccc1Cl | active: -52.2% |
| Cn1c(SCC(=O)Nc2ccc(NC(=O)c3cccc(F)c3)cc2)nnc1-c1ccncc1 | inactive: 7.97% |
| CCOC(=O)C1=CN(CC)S(=O)(=O)NC1CCc1ccccc1 (stereo not drawn) | inconclusive: -30.1% |
| COc1ccc(CCNC(=O)c2ccc(Cl)c(S(=O)(=O)N3CCCCCC3)c2)cc1 | inconclusive: -31.3% |
| CCCc1cc(C(=O)Nc2ccc(F)c(Cl)c2)no1 | active: -50.7% |

Two of the compounds above, with each value named.
CC(=O)Nc1ccc(OCc2cn(CC(=O)c3ccc(O)cc3)nn2)cc1
  max response, negative = inhibition: active: -114%
CCCC(C(=O)NC1CCCC1)N(C(=O)c1snc(C(N)=O)c1N)c1ccc(OCC)cc1 (stereo not drawn)
  max response, negative = inhibition: inconclusive: -42.5%

The list goes on.

| SMILES | max response, negative = inhibition |
| --- | --- |
| O=C1NC[C@H](Cc2ccccc2)N(C[C@H]2CCCN2C[C@H](Cc2ccccc2)N2C[C@H](Cc3ccccc3)N(CC3CCCCC3)C(=O)C2=O)C1=O | inconclusive: -40.3% |
| C#CC1(NC(=S)Nc2cccc(OC)c2)CCCCC1 | inactive: 33% |
| COc1ccc(NC(=O)CN2CCC(NC(=O)C3CCCCC3)CC2)cc1 | inconclusive: -32.1% |
| O=C(CCN1C(=O)COc2ccccc21)NCCCN1CCN(c2ccc(F)cc2)CC1 | inconclusive: -42.2% |
| Cc1ccc2c(COC(=O)CNC(=O)c3ccccc3)cc(=O)oc2c1 | inactive: 20.8% |
| CC(=O)c1ccc(NC(=O)Nc2ccc3c(c2)N(C)C(=O)CS3)cc1 | inconclusive: -33.5% |
| CN(Cc1nccn1C)C(=O)c1ccc(OC2CCN(CCc3ccccc3)CC2)cc1 | inconclusive: -30.7% |
| O=C(c1cc(F)ccc1F)C1CCCN(Cc2cccn2-c2ccccn2)C1 (stereo not drawn) | inactive: -19.6% |
| CC(C)C(=O)N1CCN(c2ccc(NC(=O)COc3ccccc3[N+](=O)[O-])cc2)CC1 | inactive: 144% |
| Cc1ccnc(N/N=C/c2ccco2)n1 | inconclusive: -41.6% |
| Cc1c(O)nc2ccccn2c1=O | inactive: 2.78% |
| O=C(Cn1nc(Cl)nc1Cl)c1ccc2c(c1)OCCO2 | inconclusive: -44.2% |
| CCOc1cc(C(=O)NN=C2CCCC2)cc(OCC)c1OCC | active: -50.8% |
| COc1ccc2c(c1OC)C(=O)N(c1cccc(NC(C)=O)c1)C2 | inactive: 5.81% |
| Cc1ccc(OCC(O)CN2CCN(c3ccccc3)CC2)cc1 (stereo not drawn) | active: -74.9% |
| Cc1nc(C#N)c(N/N=C/c2c(F)cccc2Cl)o1 | active: -64.3% |
| COC(=O)c1cc(C#N)c(N(C)Cc2ccccc2)nc1C | inconclusive: -45.8% |
| Cc1ccc(S(=O)(=O)NNC(=O)CCC(=O)Nc2ccc(C)c(C)c2)cc1 | inconclusive: -45.3% |
| CCCS(=O)(=O)N1CCCC(C(=O)NCCCN2CCN(c3ccccc3F)CC2)C1 (stereo not drawn) | active: -53.3% |
| CCOP(=O)(OCC)/C(=N/OC(=O)c1ccc(OC)cc1)C(N)=O | inconclusive: -37.7% |
| O=C(NC(=S)Nc1nc2c(s1)CCCC2)c1ccc(C(=O)c2ccccc2)cc1 | inconclusive: -34.8% |
| CCS(=O)(=O)c1ccc2c(c1)N(S(C)(=O)=O)CC(C(=O)NCc1ccccc1OC)O2 (stereo not drawn) | inconclusive: -30.9% |
